The record followed here is article PMC9818988, “SR Protein Kinase 1 Inhibition by TAF15” (Cells, 2022).

Protein sequences, listed by entry. Tags and fused reporters are not part of them. Lines headed by an entry give the natural chain unless they say otherwise; changes in a name come on top. Chains listed by the source or under a name are the forms on record and can include a tag or linker. Residues count along the entry.
UniProt Q96SB4: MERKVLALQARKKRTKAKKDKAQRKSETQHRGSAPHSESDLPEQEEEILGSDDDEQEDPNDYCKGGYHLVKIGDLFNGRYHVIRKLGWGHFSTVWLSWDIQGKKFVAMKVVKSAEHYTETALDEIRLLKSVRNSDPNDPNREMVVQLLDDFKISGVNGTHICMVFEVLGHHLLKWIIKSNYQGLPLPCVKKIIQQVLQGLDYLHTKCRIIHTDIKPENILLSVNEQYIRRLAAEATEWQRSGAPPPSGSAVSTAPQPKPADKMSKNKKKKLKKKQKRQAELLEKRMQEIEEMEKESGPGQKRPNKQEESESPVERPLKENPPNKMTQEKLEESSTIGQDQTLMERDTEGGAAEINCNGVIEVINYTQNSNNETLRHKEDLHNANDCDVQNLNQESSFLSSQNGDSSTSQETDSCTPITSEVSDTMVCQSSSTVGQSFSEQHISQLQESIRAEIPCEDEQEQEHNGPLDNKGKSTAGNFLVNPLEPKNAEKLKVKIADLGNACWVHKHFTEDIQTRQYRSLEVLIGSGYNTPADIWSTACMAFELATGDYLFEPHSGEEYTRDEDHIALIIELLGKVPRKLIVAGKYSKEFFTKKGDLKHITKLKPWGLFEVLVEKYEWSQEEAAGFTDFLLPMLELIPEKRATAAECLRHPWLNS
GST-TAF15-RGG (Q92804, residues 322-592): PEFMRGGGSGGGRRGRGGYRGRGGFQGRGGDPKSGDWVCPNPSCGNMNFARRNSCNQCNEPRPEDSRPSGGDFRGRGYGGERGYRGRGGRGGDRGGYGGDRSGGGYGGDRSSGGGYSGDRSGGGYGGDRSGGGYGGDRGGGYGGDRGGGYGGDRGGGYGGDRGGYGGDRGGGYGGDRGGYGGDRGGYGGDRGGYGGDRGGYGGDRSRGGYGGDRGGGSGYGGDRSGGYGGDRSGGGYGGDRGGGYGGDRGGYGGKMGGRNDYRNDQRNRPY
GST-TAF15 (Q92804-2, form named): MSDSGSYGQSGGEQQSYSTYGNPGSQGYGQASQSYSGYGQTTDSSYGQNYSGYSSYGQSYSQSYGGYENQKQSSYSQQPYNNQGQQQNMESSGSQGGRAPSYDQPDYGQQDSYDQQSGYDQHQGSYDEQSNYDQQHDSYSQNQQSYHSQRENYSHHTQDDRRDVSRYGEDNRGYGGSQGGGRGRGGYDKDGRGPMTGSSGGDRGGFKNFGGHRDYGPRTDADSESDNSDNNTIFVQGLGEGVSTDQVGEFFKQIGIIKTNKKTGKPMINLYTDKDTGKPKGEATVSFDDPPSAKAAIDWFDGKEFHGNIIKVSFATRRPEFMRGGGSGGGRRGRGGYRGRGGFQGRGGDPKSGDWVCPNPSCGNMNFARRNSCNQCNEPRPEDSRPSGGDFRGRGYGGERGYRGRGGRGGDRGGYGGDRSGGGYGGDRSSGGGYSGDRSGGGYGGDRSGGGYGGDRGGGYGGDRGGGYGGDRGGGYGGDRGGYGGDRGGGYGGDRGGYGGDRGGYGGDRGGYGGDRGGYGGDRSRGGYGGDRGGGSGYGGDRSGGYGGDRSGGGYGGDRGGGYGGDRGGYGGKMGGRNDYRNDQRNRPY
GST-TAF15(1–320) (Q92804-2, form named): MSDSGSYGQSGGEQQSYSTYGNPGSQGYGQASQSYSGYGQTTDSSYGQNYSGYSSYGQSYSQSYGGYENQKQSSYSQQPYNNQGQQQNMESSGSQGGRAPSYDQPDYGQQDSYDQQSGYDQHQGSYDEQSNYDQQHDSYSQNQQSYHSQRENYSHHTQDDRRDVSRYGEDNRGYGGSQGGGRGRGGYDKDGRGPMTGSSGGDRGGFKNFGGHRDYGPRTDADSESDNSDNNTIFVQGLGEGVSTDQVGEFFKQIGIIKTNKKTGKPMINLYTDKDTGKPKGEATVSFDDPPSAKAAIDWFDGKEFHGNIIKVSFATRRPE

Experiment [1] addresses GST-SRPK1 (UniProt Q96SB4). Nature of the experiment: pull-down; GST-SRPK1 (2–3 μg) immobilized on glutathione-Sepharose beads, His-TAF15 (2 μg) in solution; 20 mM Hepes pH 7.5, 50 mM NaCl (also 150 and 300 mM NaCl), 1% Triton X-100, 0.5 mL, 60 min, room temperature; bound His-TAF15 detected by Coomassie Blue staining; both purified.
Experiment [2] concerns the target GST-TAF15 (human) (UniProt Q92804). Description: pull-down; GST fusions of TAF15 (2–3 μg each) immobilized on glutathione-Sepharose beads, incubated with HeLa cell extracts (∼200 μg of total protein); 50 mM Tris-HCl pH 7.5, 150 mM NaCl, 1% Triton X-100, 0.5 mM PMSF, 0.5 mL, 60 min, room temperature; bound SRPK1 detected by Western blotting; only the target purified.

Experiment [3] concerns the target GST-TAF15(1–320) (human) (UniProt Q92804). The description is as above.
Experiment [4] addresses GST-TAF15-RGG (human) (UniProt Q92804). Described as above.

No constants are given. Whether binding was seen depends on the method and setting. For some of these results: In cells and extracts the contact can be indirect. Some results given as binding are weak or reduced against the parent protein; the word gives no strength.

As to His-TAF15 (from UniProt Q92804-2 1-589), the binding entry in experiment [1] was “binds”.

On to “SRPK1 (endogenous, HeLa cell extracts) (from UniProt Q96SB4 1-655) (enzyme)”, for which the binding result in experiment [2] was “binds”; in experiment [3] it was “no binding”; in experiment [4] it was “binds”.
